In patent US20180153922A1 one finds binding data, which are given here for two substances.

Protein sequences, listed by entry. Tags and fused reporters are not part of them.
UniProt P56477: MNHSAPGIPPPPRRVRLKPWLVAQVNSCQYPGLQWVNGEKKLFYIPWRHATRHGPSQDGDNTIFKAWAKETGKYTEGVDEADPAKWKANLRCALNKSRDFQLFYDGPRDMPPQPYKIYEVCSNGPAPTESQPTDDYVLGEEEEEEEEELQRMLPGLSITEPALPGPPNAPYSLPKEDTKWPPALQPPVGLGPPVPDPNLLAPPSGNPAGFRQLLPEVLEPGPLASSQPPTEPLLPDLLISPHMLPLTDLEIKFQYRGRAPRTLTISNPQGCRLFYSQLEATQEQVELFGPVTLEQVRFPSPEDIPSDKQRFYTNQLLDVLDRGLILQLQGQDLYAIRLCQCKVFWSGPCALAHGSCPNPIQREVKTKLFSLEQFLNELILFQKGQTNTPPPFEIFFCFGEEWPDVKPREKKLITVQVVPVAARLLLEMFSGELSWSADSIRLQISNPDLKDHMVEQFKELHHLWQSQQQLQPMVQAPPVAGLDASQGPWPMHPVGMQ
UniProt Q6A028: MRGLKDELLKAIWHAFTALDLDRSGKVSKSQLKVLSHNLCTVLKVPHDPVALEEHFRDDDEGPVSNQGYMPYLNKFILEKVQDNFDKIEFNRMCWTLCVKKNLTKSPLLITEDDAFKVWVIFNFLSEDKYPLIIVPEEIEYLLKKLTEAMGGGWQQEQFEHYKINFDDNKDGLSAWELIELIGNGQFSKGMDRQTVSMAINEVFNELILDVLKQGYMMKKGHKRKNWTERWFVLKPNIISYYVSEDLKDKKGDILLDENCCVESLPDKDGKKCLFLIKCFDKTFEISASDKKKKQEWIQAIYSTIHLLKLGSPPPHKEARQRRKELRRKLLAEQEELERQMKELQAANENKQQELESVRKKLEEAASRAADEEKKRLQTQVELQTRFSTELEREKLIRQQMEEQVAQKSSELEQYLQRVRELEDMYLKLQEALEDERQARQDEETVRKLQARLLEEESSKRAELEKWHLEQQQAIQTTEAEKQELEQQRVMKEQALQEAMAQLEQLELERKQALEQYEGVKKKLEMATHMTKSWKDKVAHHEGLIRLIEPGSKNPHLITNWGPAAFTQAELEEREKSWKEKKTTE
UniProt Q8C2K1: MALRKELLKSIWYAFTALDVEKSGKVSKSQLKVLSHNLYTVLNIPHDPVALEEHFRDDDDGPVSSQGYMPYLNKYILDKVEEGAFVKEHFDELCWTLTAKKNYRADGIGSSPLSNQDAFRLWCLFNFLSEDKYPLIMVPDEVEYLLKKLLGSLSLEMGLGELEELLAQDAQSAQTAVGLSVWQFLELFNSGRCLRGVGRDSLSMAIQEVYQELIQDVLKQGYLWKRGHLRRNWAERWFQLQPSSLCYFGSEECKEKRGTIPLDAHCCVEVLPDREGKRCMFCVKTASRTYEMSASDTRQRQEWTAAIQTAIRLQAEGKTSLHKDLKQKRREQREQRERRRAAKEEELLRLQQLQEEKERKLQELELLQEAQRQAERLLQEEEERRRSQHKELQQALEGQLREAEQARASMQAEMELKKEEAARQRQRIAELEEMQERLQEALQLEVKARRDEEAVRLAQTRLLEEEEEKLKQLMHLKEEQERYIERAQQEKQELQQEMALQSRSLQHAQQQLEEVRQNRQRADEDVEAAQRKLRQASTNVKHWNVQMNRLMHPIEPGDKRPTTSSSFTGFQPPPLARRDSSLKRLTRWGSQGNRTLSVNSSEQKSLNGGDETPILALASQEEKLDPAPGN

No constants are given. Whether binding was seen depends on the method and setting. Binding seen in cells or lysates may run through a third protein. Some binding calls cover weakened binding; strength is not graded here.

For assay [1], the target named is endogenous IRF5 (interferon regulatory factor 5) in mouse B cells (mouse) (UniProt P56477). Kind of assay: co-immunoprecipitation.
Assay [2] shares this target. The experiment in a line: co-immunoprecipitation with anti-IRF5 antibody from nuclear extracts of B cells, Western blot. A general note: Immunoblotting shows a protein as a band on a membrane.

As to “endogenous SWAP-70 in mouse B cells (from UniProt Q6A028 1-585)”, the binding result in assay [1] and in assay [2] was “binds” each time.

With “endogenous DEF6 in mouse B cells (from UniProt Q8C2K1 1-630)”, the binding result in assay [1] and in assay [2] was “binds” throughout.
